Drawing on PubChem BioAssay AID493014 (National Center for Advancing Translational Sciences (NCATS), 2011), this text covers AC50 for 40 molecules.

The nature of the assay: qHTS Assay to Find Inhibitors of Chronic Active B-Cell Receptor Signaling. The following applies: ABC-DLBCL IkBa-CBG/CBR reporter, luminescence ratio (green luciferase fused to IkBa over red control in TMD8 lymphoma cells), 4 h. In short, it runs like this:
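Concentration-response series (up to 46 uM) were applied to TMD8 dual-reporter cells for 4 h at 37C with doxycycline. Green/red ratio, after filter-overlap correction, defined %Activity; red signal alone was normalised to basal cells and zero luminescence.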
(qHTS replaces the single test concentration by a dilution series.)

Setting [1] is: measured here: CBR red luminescence, cell number.
Where [2] appears, read: measured here: IkBa-CBG green luminescence.

Molecules are shown by their SMILES. Where “and” joins values, the source holds several entries; their conditions need not be identical. Identical values can stand only once. This is one part of the list. Further columns of the screen follow, without active or inactive calls. Compounds called inactive in the main read-out are mostly missing here. The note in brackets gives the kind of curve behind each potency; many fits are weak.

As a reminder, the AC50 is the concentration giving half of the maximal activity seen. With `O=c1cc(CSc2ccc(Cl)cc2)nc(-c2ccccn2)[nH]1`, the AC50 reads like this: under setting [1], 10 µM [rising, partial curve]; under setting [2], 15.8 µM [falling, partial curve].
Consider `COCCCC/C(=N\OCCN)c1ccc(C(F)(F)F)cc1`, for which the AC50 is 4.47 µM [falling, partial curve, poor fit] and 16.4 µM [falling, partial curve, poor fit] under setting [1]; 2.82 µM [rising, partial curve, poor fit] under setting [2].
On to `CC1=NN(C(N)=S)C(=O)C1N=Nc1ccc(C)c(Br)c1` (stereo not drawn), for which the AC50 under setting [1] is 1 µM [rising, full curve, poor fit] and the AC50 under setting [2] is 0.631 µM [falling, partial curve, poor fit].
Regarding `Clc1ccccc1Nc1nc(-c2cccnc2)cs1`, the AC50 under setting [1] is 35.5 µM [falling, single point].
As for `COc1ccccc1NC(=S)NNC(=O)c1cc(C)n(C)n1`, the AC50 under setting [1] is 7.31 µM [falling, partial curve, poor fit].
Take `Cc1ccc(NC2=CC(=O)CCC2)cc1C`: the AC50 under setting [1] is 29.1 µM [falling, single point].
Same read-out and setting: the same measure for `CCCOc1ccccc1C1CC(=O)NC2=C1C(=O)CCC2` (stereo not drawn): 35.5 µM [rising, single point]; for `COCCSc1ccccc1C(=O)Nc1ccccc1C#N`: 35.5 µM [rising, single point]; for `O=C(NCCO)c1ccc(Oc2ccc(C(F)(F)F)cc2[N+](=O)[O-])cc1`: 31.6 µM [rising, single point].
The same measure, in the same setting: the result for `CC(C)N1CCc2c(sc(NC(=S)NC(=O)c3ccccc3)c2C#N)C1` reads 1.16 µM [falling, full curve].
Still for that read-out and setting: the same measure for `O=C(c1ccco1)N1N=C(c2ccc(Br)cc2)CC1c1ccco1` (stereo not drawn): 20.6 µM [rising, single point]; for `CC(=O)OCC(=O)[C@@]12OC(C)(C)O[C@@H]1CC1C3C[C@H](F)C4=CC(=O)C=CC4(C)[C@@]3(F)C(O)CC12C` (stereo partly drawn): 29.1 µM [rising, partial curve, poor fit]; for `CCN1CCN(c2oc(-c3ccccc3C)nc2S(=O)(=O)c2ccccc2)CC1`: 0.103 µM [rising, full curve, poor fit].
Turning to `CCOc1ccc(OCC)c(NC(=O)C2CCN(c3ncccn3)CC2)c1`, the AC50 under setting [1] is 32.6 µM [rising, partial curve, poor fit].
With `Oc1ccc2ccccc2c1C=Nc1ccccc1`, the AC50 under setting [1] was 35.5 µM [falling, single point].
Consider `O=C(COC(=O)C1CCN(c2ccc(C(F)(F)F)cn2)CC1)NCc1ccc(F)cc1`, for which the AC50 under setting [1] was 29.1 µM [rising, single point].
Still for that read-out and setting: the result for `CCOc1cccc(C(=O)NNC(=O)C2C3C=CC(C3)C2C(=O)O)c1` (stereo not drawn) reads 0.562 µM [falling, full curve, poor fit].
The same measure, in the same setting: the result for `CN(C)CCCN(C(=O)c1sc2ccccc2c1Cl)c1nc2ccc(F)cc2s1` reads 1.64 µM [falling, full curve, poor fit]; that for `N#C/C(=C\c1ccc(F)cc1)C(=O)Nc1ccccn1`, 5.01 µM [rising, full curve, poor fit].
As for `COc1ccc(Cn2nnc3c(=O)[nH]c(C(=O)NCCc4ccc(F)cc4)nc32)cc1OC`, the AC50 under setting [1] is 7.31 µM [rising, partial curve, poor fit].
Still for that read-out and setting: the same measure for `Cc1cc(=O)oc(C)c1C(=O)NCC(C)NC(=O)c1c(C)cc(=O)oc1C` (stereo not drawn): 29.1 µM [rising, single point]; for `COc1ccc(C(=O)COC(=O)CNC(=O)c2ccc(C)s2)c(OC)c1`: 0.82 µM [rising, full curve]; for `COc1cccc(/C=C2\SC(=S)N(N3C(=O)CCCC3=O)C2=O)c1`: 11.2 µM [falling, single point].
The same measure, in the same setting: the result for `CSc1ccc(S(=O)(=O)N2CCC(C(=O)NCCc3ccccc3)CC2)cc1` reads 6.31 µM [rising, single point]; that for `COc1cc(NC(=O)/C=C/c2ccccc2)c(C(=O)O)cc1OC`, 11.2 µM [falling, partial curve, poor fit].
On to `O=C(NNC1=Nc2ccccc2SC1)c1cccc([N+](=O)[O-])c1`, for which the AC50 under setting [1] was 1.58 µM [rising, full curve, poor fit].
Same read-out and setting: the result for `COC(=O)c1ccc2c(=O)n(CCCCCC(=O)O)c(=S)[nH]c2c1` reads 1.16 µM [falling, full curve]; that for `Nc1nnc(-c2cccc(F)c2)s1`, 20 µM [rising, partial curve, poor fit]; that for `COc1ccc(NC(=O)CCN2C(=O)c3ccncc3C2=O)cc1OC`, 20 µM [rising, single point].
Consider `O=C(CCC(=O)NC1CC1)Nc1nnc(C2CCCCC2)s1`, for which the AC50 under setting [1] is 2.82 µM [rising, full curve, poor fit].
As for `CN1CCN(CCCNC(=O)c2ccc(CS(=O)(=O)c3ccc(Br)cc3)o2)CC1`, under setting [1], the AC50 is 29.1 µM [rising, single point].
Same read-out and setting: the result for `O=C(N/N=C/C=C\c1ccco1)c1ccccn1` reads 12.6 µM [falling, partial curve, poor fit].
Still for that read-out and setting: the same measure for `COc1ccc(Oc2nccc(-c3ccccc3)c2C#N)cc1`: 1.26 µM [rising, full curve, poor fit]; for `O=C(Nc1ccc2oc(-c3ccccc3)nc2c1)c1ccncc1`: 0.708 µM [rising, full curve, poor fit].
Still for that read-out and setting: the result for `CN1CCN(CC(=O)Nc2ccc(OC(F)(F)F)cc2)CC1` reads 22.4 µM [falling, single point]; that for `C=CCNC(=S)NNC(=O)c1cccn(Cc2ccc(Cl)cc2)c1=O`, 3.16 µM [falling, partial curve, poor fit]; that for `Cc1ccc(-c2noc(CCC(=O)NCC3CCCO3)n2)cc1` (stereo not drawn), 29.1 µM [rising, single point].
For the molecule `O=C1c2ccccc2C(=O)N1CCCCCc1nc(-c2ccccc2)no1`, the AC50 under setting [1] is 6.51 µM [rising, single point].
With `COc1ccc(C/C(C)=N/NC(=O)c2ccc(Cl)cc2)cc1`, under setting [1], the AC50 was 17.8 µM [falling, partial curve, poor fit].
Still for that read-out and setting: the result for `Fc1ccccc1SCc1nnc(-c2ccccc2Br)o1` reads 0.112 µM [rising, full curve, poor fit].
